Results of single-concentration screens

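Whole-parasite assay of Trypanosoma brucei over 72 hours; the read-out is not stated. Compounds at 30 µM. The record gives no direction; compounds that gave an IC50 in retests scored well above the rest, so higher reads as stronger inhibition. Values scatter widely below zero; nearly all retest evidence comes from the higher of the two concentrations used. Of about 64,000 compounds tested this way, about 940 (1.5%) reached 50% or more in at least one test.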

Values are the deposited “Percent Effect”, in %. How 0% and 100% were set is not recorded. Most values in the screen are low, and negative values occur. Compounds were drawn at random from those tested, without regard to their results.

Compound	effect
CC1CCc2sc(C(=O)Nc3cnn(C)c3)cc2C1 (centres undefined)	3.458
CN(C(=O)COc1ccc(F)cc1)[C@@H]1CS(=O)(=O)C[C@H]1O	-50.34
COc1ccc(C(C(=O)O)N(C)Cc2c(C)nn(C)c2C)c(C)c1 (centres undefined)	-62.81
CSCc1noc(CNC(=O)c2cc(C)c(C)[nH]c2=O)n1	-2.406
O=C(c1ccccn1)N1CCN(C(c2ccccc2)C(F)(F)F)CC1 (centres undefined)	-85.94
Cc1cc(CN(C)C(=O)CN2CCCC2=O)no1	-36.23
Cc1[nH]c2c(F)cccc2c1CC(=O)NC1CCCCNC1=O (centres undefined)	-56.05
CCc1cc(C(=O)N2CC[C@@H](c3ccc4c(c3)OCO4)[C@H](O)C2)[nH]n1	-49.12
O=S1(=O)NC(c2ccnc(N3CCCCC3)n2)=Nc2ccccc21	-2.654
O=C(O)C1(Cc2ccccc2Cl)CCN(c2ncnc3[nH]ccc23)CC1	-68.9
O=C(N[C@@H]1CCNC[C@H]1O)c1ccc(F)c(Cl)c1	-3.774
O=C(C1NCCc2[nH]cnc21)N1CCC2(C=Cc3ccccc32)CC1 (centres undefined)	37.66
CC(C)N(CCO)C(=O)C1CCC(=O)N(CCc2ccc(Cl)cc2)C1 (centres undefined)	0.9455
O=C(O)c1cnc(N2CCCC2)nc1COc1ccc(F)cc1	-9.56
CC(C)n1cc(CN2CCCN(C(=O)C3CCCN3C)CC2)cn1 (centres undefined)	-5.871
O=C(O)c1cccc(CN2CCCC(c3ccn[nH]3)C2)c1 (centres undefined)	-0.7278
CCN1CC(C(=O)N2CC(Oc3ccccc3F)C2)CC1=O (centres undefined)	-40.89
Cc1cc(NC(=O)CNC2CCCN(c3cccnn3)C2)on1 (centres undefined)	-6.775
O=C(O)C(F)(F)F.[H][C@@]12CCCO[C@]1([H])[C@H](N1CCOCC1)CN(C(=O)c1ccccc1)C2	-37.06
CC(Cn1cccn1)NC(=O)Nc1ccc(N2CCCC2)nc1 (centres undefined)	-7.448
COC(=O)c1ccc(Cn2cccc(C(F)(F)F)c2=O)s1	-57.43
CCn1ncc2c1C(COCC1CC1)N(C(=O)c1ccncn1)CC2.O=C(O)C(F)(F)F (centres undefined)	-75.47
CCN1CCOCC12CCN(C(=O)Cc1ccccc1)CC2.O=C(O)C(F)(F)F	60.57
COc1ccc(NC(C)C(=O)NCCc2cccs2)cc1F (centres undefined)	-63.82
CCN(CC1CN(Cc2nc(C3CC3)no2)CCO1)c1cccnn1 (centres undefined)	37.04
O=C(O)C(F)(F)F.O=C(O)C(F)(F)F.[H][C@@]12CCCO[C@]1([H])[C@@H](N(C)Cc1cncnc1)CN2CC1CC1	37.46
COc1ccc(C2Nc3cc(Cl)ccc3C3=NCCN32)cc1OC (centres undefined)	25.02
Fc1cnc(N2CCCC3(CCN(Cc4cccs4)C3)C2)nc1.O=C(O)C(F)(F)F.O=C(O)C(F)(F)F (centres undefined)	-43.19
Cc1ncsc1CCN(C)C(=O)CN1CC2(CCNCC2)OC1=O	-8.181
O=C(O)c1ccnc(-c2ccnc(COc3ccc(Cl)cc3)n2)c1	-39.23
COc1cccc(C2CCCN2C(=O)NCCCn2cccn2)c1 (centres undefined)	10.69
Cc1cc(C(=O)N2CCN(S(C)(=O)=O)[C@@H](C)C2)c(F)cc1F	-25.88
CN1CCCCC12CCN(c1nncs1)CC2.O=C(O)C(F)(F)F	-40.4
[H][C@@]12CCCO[C@]1([H])[C@H](N(CC)CC)CN2Cc1ccc(C)o1	-17.72
Cc1ncc(C(=O)NCCNc2ncnc3sccc23)s1	-39.34
O=C(NCc1cccc(N2CC=CC2)c1)NCC(F)(F)F	-15.32
CC(c1ccc(Cl)cc1)N1CCN(CCS(N)(=O)=O)CC1 (centres undefined)	-44.2
[H][C@]12CC(Cn3cccn3)N(C)[C@@]1([H])CCN(Cc1cnn(C)c1)C2 (some centres undefined)	-13.79
CCn1ccc(NC(=O)CCn2nc(C)c3ccccc32)n1	5.006
COc1cccc(CN2CCCC(Nc3cccc(F)c3)C2)c1O (centres undefined)	10.59
COC(=O)c1ccc(-c2noc(CN(CCO)Cc3cccs3)n2)cc1	3.719
[H][C@]12CC[C@]([H])(CN(C(=O)c3cccnc3)C1)N(C(=O)CN1CCOC1=O)C2	-9.078
O=C(O)C(F)(F)F.[H][C@]12CN(Cc3cccc(C)c3)C(=O)[C@@]1([H])CN(C1CCOCC1)C2	-40.82
Cc1nc2c(N3CCC(O)(Cn4ccnc4)CC3)ncnc2o1	-18.21
CN(Cc1noc2c1CCCC2)C(=O)Nc1cncc(F)c1	-60.66
CNc1ncc(CN(C)C(=O)CCc2cc3n(n2)CCCNC3)cn1	-4.974
[H][C@@]12CS(=O)(=O)C[C@]1([H])N(Cc1ccc(F)c(C)c1)CCN2CCOC	9.143
CCOCC1c2c(ncn2C)CCN1C(=O)c1cnc(C)cn1.O=C(O)C(F)(F)F (centres undefined)	3.559
CCOCCCNC(=O)C1CCC(=O)N(CCc2ccc(Cl)cc2)C1 (centres undefined)	-26.7
CC(C)C(C(=O)N1CCCN(Cc2cscn2)CC1)n1cncn1 (centres undefined)	-18.21
Cc1ccc(C(=O)Nc2nnc(CC(C)C)s2)c(-n2cnnn2)c1C	-33.21
COc1ccc(S(=O)(=O)NCCn2cnc(C)cc2=O)cc1C	-60.32
O=C(CCn1ccc(=O)[nH]c1=O)N1CCC(OCc2cccnc2)CC1	-9.211
O=C(O)C(F)(F)F.[H][C@@]12CN(Cc3ccccn3)C[C@]1([H])CN(C(=O)Cc1cccc(F)c1)C2	-6.988
CC(C)(C)OC(=O)NC(C)(C)c1noc(CSc2ccccn2)n1	17.58
O=C(c1csc(I)c1)N1CCc2c(ncn2C2CC2)C1	-21.41
CCCC(=O)N1CCCC(Cn2cc(-c3ccc(F)cc3)nn2)C1 (centres undefined)	34.31
c1ccc(-c2ncc(CN3CCC4(CCNCC4)C3)cn2)cc1	-10.58
COCCN1CCC(c2nc3c([nH]2)CC(C)(C)CNC3=O)C1 (centres undefined)	-16.59
Cc1ccc(S(=O)(=O)N2CCC(Cn3cc(C(C)(C)N)nn3)CC2)s1	-37.8
CN(C)C(=O)NC1COC2(CCN(Cc3ccc(Cl)c(F)c3)CC2)C1.O=C(O)C(F)(F)F (centres undefined)	-4.408
CN(C)C(=O)CN1CCOCC2(C1)CN(c1ncccn1)CCO2.O=C(O)C(F)(F)F (centres undefined)	-20.68
CNc1ncc(-c2ccnn2C2CCN(C(C)=O)CC2)cn1	-1.542
CCc1nn(C)c2[nH]nc(NC(=O)c3ccccc3COC)c12	-25.53
O=C(Nc1cn[nH]c1)N(CCO)C1CCc2ccccc21 (centres undefined)	35.9
Fc1ccc(F)c(CN2CCC(c3n[nH]c4ncccc34)CC2)c1.O=C(O)CC(O)(CC(=O)O)C(=O)O	65.45
CN(C)CC1CN(c2ncnc3ccsc23)CCO1 (centres undefined)	-17.22
Cc1nc[nH]c1CN1CCCn2nc(CN3CCC(F)(F)CC3)cc2C1	1.52
COC(=O)c1cccc(S(=O)(=O)NCC(c2ccco2)N2CCCC2)c1 (centres undefined)	1.978
[H][C@@]12CS(=O)(=O)C[C@]1([H])N(Cc1ccc(C(C)=O)cc1)CCN2CCOC	0.9438
CC(C)(C)c1ncc(CNc2ccccc2SCCC(N)=O)s1	-29.32
O=C(O)C(F)(F)F.O=C(O)C(F)(F)F.O=C(O)C(F)(F)F.[H][C@@]12OCCN(Cc3cccnc3)[C@@]1([H])CC[C@H]2OCc1csc(C)n1	-26.73
[H][C@@]12CCN(C(=O)NC)CC[C@]1(C(=O)Nc1ccccc1)CCN2C	4.922
[H][C@]12CC[C@]([H])(CN(Cc3cc(-c4ccccc4)no3)C1)N(CC1CCC1)C2	58.21
Cc1nc(CN2CC[C@@H](OCC3CC3)[C@@H]2Cc2cccnc2)cs1.O=C(O)C(F)(F)F.O=C(O)C(F)(F)F	-67.96
CC(C)Cn1nc(-c2ccc(C(=O)O)cc2)cc1-c1ccc(F)cc1	-3.88
O=C(O)C(F)(F)F.O=C(O)C(F)(F)F.O=C(O)C(F)(F)F.[H][C@@]12OCCN(Cc3cccc(C)n3)[C@@]1([H])CC[C@H]2Oc1ccccn1	-12.06
COCCS(=O)(=O)NC(=O)c1nnn(-c2ccc(F)cc2)c1C1CC1	-114.5
CCn1c(CN(C)C(=O)c2ccc(N(C)C)nc2)nc2ccccc21	-14.77

The first 6 entries again:

{"compound": "CC1CCc2sc(C(=O)Nc3cnn(C)c3)cc2C1", "stereo": "centres undefined", "effect": 3.458}
{"compound": "CN(C(=O)COc1ccc(F)cc1)[C@@H]1CS(=O)(=O)C[C@H]1O", "effect": -50.34}
{"compound": "COc1ccc(C(C(=O)O)N(C)Cc2c(C)nn(C)c2C)c(C)c1", "stereo": "centres undefined", "effect": -62.81}
{"compound": "CSCc1noc(CNC(=O)c2cc(C)c(C)[nH]c2=O)n1", "effect": -2.406}
{"compound": "O=C(c1ccccn1)N1CCN(C(c2ccccc2)C(F)(F)F)CC1", "stereo": "centres undefined", "effect": -85.94}
{"compound": "Cc1cc(CN(C)C(=O)CN2CCCC2=O)no1", "effect": -36.23}

The values are deposited in ChEMBL (CHEMBL3988442, “University of Dundee, Small-Polar-MMV Screening Library” (2021)).